{"source": "PubChem BioAssay AID248", "about": "(DTP/NCI, 2004)", "test_system": "L1210 leukemia ip in BDF1 mice, survival T/C", "test": "NCI In Vivo Anticancer Drug Screen. Data for tumor model L1210 Leukemia (intraperitoneal) in B6D2F1 (BDF1) mice", "conditions": "T/C endpoint: mean survival time, higher T/C = longer survival", "key": {"[1]": {"conditions": "dose: 400.0 mg/kg/injection, schedule: Q01DX001 (ip), vehicle: carboxymethylcellulose (CMC)"}, "[2]": {"conditions": "dose: 400.0 mg/kg/injection, schedule: Q01DX001 (ip), vehicle: saline"}, "[3]": {"conditions": "dose: 200.0 mg/kg/injection, schedule: Q01DX001 (ip), vehicle: saline"}, "[4]": {"conditions": "dose: 200.0 mg/kg/injection, schedule: Q04DX003 (ip), vehicle: saline with Tween-80"}, "[5]": {"conditions": "dose: 400.0 mg/kg/injection, schedule: Q04DX003 (ip), vehicle: Klucel (hydroxypropylcellulose) (HPC)"}, "[6]": {"conditions": "dose: 200.0 mg/kg/injection, schedule: Q01DX009 (ip), vehicle: saline with Tween-80"}, "[7]": {"conditions": "dose: 400.0 mg/kg/injection, schedule: Q04DX003 (ip), vehicle: saline"}}, "note": "The list shows only some results of the screen, not a fair sample: it gathers tests that were run many times, whatever their T/C, doses with no T/C, and many T/C values between a quarter and a half above the control. Further doses and runs are listed elsewhere. T/C gives the treated animals as a percentage of the vehicle group. Some entries give survivors of the animals treated and no T/C: the source files T/C as zero there, which appears to mark a toxic dose or a test without result, not a measured value. Some doses without a T/C left all or most animals alive at the check, yet need not have been tolerated: survival well below the control is almost never listed, so the zero probably covers shortened survival too. Survivors were counted at the toxicity check, usually on the fifth day, unless a day is given; later deaths do not show. Schedules are NCI's codes, taken here to give the interval after Q, in days (D) or hours (H), and the number of doses after X. Some schedule codes hold Z or #, which are not explained here. Some molecules as drawn cover several salts, stereoisomers or complexes of the source; a dose is that of the sample tested. Some doses were run more than once; the results are listed from low to high. For survival time, the PubChem record calls one and a half times the control and up active, and a quarter to a half above the control has no call in these data; cut-offs in other NCI protocols can differ. Some T/C values carry the count of animals alive at the toxicity check (mostly the fifth day); without a count, all were alive then."}
{"smiles": "Cc1ccc(NC(=O)N(CCO)N=O)cc1", "values": [{"measurement": "survivor count", "setting": "dose: 100.0 mg/kg/injection, schedule: Q01DX001 (ip), vehicle: carboxymethylcellulose (CMC)", "value": "2 of 4"}, {"measurement": "survivor count", "setting": "dose: 118.0 mg/kg/injection, schedule: Q01DX001 (ip), vehicle: carboxymethylcellulose (CMC)", "value": "0 of 4"}, {"measurement": "survivor count", "setting": "dose: 178.0 mg/kg/injection, schedule: Q01DX001 (ip), vehicle: carboxymethylcellulose (CMC)", "value": "0 of 4 and 1 of 4"}, {"measurement": "T/C", "setting": "dose: 200.0 mg/kg/injection, schedule: Q01DX001 (ip), vehicle: carboxymethylcellulose (CMC)", "value": "125 % of control [3 of 4 alive]"}, {"measurement": "survivor count", "setting": "dose: 267.0 mg/kg/injection, schedule: Q01DX001 (ip), vehicle: carboxymethylcellulose (CMC)", "value": "0 of 4 and 2 of 4"}, {"measurement": "T/C", "setting": "[1]", "value": "125 % of control [3 of 4 alive]"}, {"measurement": "survivor count", "setting": "[1]", "value": "0 of 4"}, {"measurement": "survivor count", "setting": "dose: 600.0 mg/kg/injection, schedule: Q01DX001 (ip), vehicle: carboxymethylcellulose (CMC)", "value": "0 of 4"}]}
{"smiles": "O=C1N=C(c2ccccc2)OC1C(=O)c1ccccc1", "note": "(stereo not drawn)", "values": [{"measurement": "survivor count", "setting": "[2]", "value": "1 of 4"}]}
{"smiles": "OCCN=Cc1ccccc1O.OCCN=Cc1ccccc1O.[Ni]", "values": [{"measurement": "survivor count", "setting": "dose: 300.0 mg/kg/injection, schedule: Q01DX001 (ip), vehicle: other", "value": "2 of 6"}]}
{"smiles": "CCC(=O)OC1(c2ccccc2)CCN(CCC(O)c2ccccc2)CC1", "note": "(stereo not drawn)", "values": [{"measurement": "survivor count", "setting": "dose: 50.0 mg/kg/injection, schedule: Q01DX009 (ip), vehicle: Klucel (hydroxypropylcellulose) (HPC)", "value": "3 of 6"}, {"measurement": "survivor count", "setting": "dose: 100.0 mg/kg/injection, schedule: Q01DX009 (ip), vehicle: Klucel (hydroxypropylcellulose) (HPC)", "value": "1 of 6"}]}
{"smiles": "O=C1c2cccc3cccc(c23)C(=O)N1c1ncn[nH]1", "values": [{"measurement": "survivor count", "setting": "[3]", "value": "4 of 4"}]}
{"smiles": "O=[N+]([O-])CC(NNC(C[N+](=O)[O-])C(Cl)(Cl)Cl)C(Cl)(Cl)Cl", "note": "(stereo not drawn)", "values": [{"measurement": "survivor count", "setting": "dose: 400.0 mg/kg/injection, schedule: Q01DX009 (ip), vehicle: saline with Tween-80", "value": "6 of 6"}]}
{"smiles": "Nc1nc2c(ncn2C2OC(CO)C(O)C2O)c(=O)[nH]1", "note": "(stereo not drawn)", "values": [{"measurement": "survivor count", "setting": "[3]", "value": "1 of 6"}, {"measurement": "survivor count", "setting": "[2]", "value": "0 of 6 and 2 of 4"}]}
{"smiles": "C=CCN(C)N=Nc1ccccc1C(N)=O", "values": [{"measurement": "T/C", "setting": "dose: 59.0 mg/kg/injection, schedule: Q01DX009 (ip), vehicle: saline with Tween-80", "value": "135 % of control"}, {"measurement": "T/C", "setting": "dose: 88.0 mg/kg/injection, schedule: Q01DX009 (ip), vehicle: saline with Tween-80", "value": "148 % of control"}, {"measurement": "T/C", "setting": "dose: 133.0 mg/kg/injection, schedule: Q01DX009 (ip), vehicle: saline with Tween-80", "value": "130 % of control"}, {"measurement": "T/C", "setting": "dose: 133.0 mg/kg/injection, schedule: Q04DX003 (ip), vehicle: saline with Tween-80", "value": "141 % of control"}, {"measurement": "T/C", "setting": "[4]", "value": "149 % of control [5 of 6 alive]"}, {"measurement": "survivor count", "setting": "[4]", "value": "3 of 6"}, {"measurement": "T/C", "setting": "dose: 268.0 mg/kg/injection, schedule: Q01DX001 (ip), vehicle: saline with Tween-80", "value": "127 % of control"}, {"measurement": "survivor count", "setting": "dose: 300.0 mg/kg/injection, schedule: Q04DX003 (ip), vehicle: saline with Tween-80", "value": "0 of 6"}, {"measurement": "survivor count", "setting": "dose: 400.0 mg/kg/injection, schedule: Q01DX001 (ip), vehicle: saline with Tween-80", "value": "3 of 6"}, {"measurement": "survivor count", "setting": "dose: 400.0 mg/kg/injection, schedule: Q04DX003 (ip), vehicle: saline with Tween-80", "value": "0 of 6"}, {"measurement": "survivor count", "setting": "dose: 600.0 mg/kg/injection, schedule: Q01DX001 (ip), vehicle: saline with Tween-80", "value": "3 of 6"}]}
{"smiles": "CC(=O)Nc1ccc(Oc2ccccc2)cc1", "values": [{"measurement": "survivor count", "setting": "[5]", "value": "4 of 6"}]}
{"smiles": "Cc1cc(C)c(O)c(C)c1C", "values": [{"measurement": "T/C", "setting": "[6]", "value": "125 % of control"}]}
{"smiles": "O=C(Nc1cccc(C(F)(F)F)c1)Nc1c(Oc2ccc(Cl)c(Cl)c2)ccc(Cl)c1S(=O)(=O)O", "values": [{"measurement": "survivor count", "setting": "[7]", "value": "0 of 6"}]}
{"smiles": "O=C(N/N=C\\c1ccc(-c2ccccc2)cc1)N/N=C/c1ccc(-c2ccccc2)cc1", "values": [{"measurement": "survivor count", "setting": "dose: 400.0 mg/kg/injection, schedule: Q04DX003 (ip), vehicle: carboxymethylcellulose (CMC)", "value": "6 of 6"}]}
{"smiles": "S=P(/C=C/c1ccccc1)(c1ccccc1)c1ccccc1", "values": [{"measurement": "survivor count", "setting": "dose: 400.0 mg/kg/injection, schedule: Q01DX009 (ip), vehicle: Klucel (hydroxypropylcellulose) (HPC)", "value": "6 of 6"}]}
{"smiles": "CCOC(=O)c1cc(C(=O)O)[nH]c(=O)c1C#N", "values": [{"measurement": "survivor count", "setting": "[4]", "value": "6 of 6"}]}
{"smiles": "COc1ccc(OC)c(/C=N/NC(=O)C[N+](C)(C)C)c1", "values": [{"measurement": "survivor count", "setting": "[6]", "value": "0 of 3"}]}
{"smiles": "Cc1cc2ccccc2[n+](C)c1-c1ccccc1Cl", "values": [{"measurement": "survivor count", "setting": "dose: 25.0 mg/kg/injection, schedule: Q04DX003 (ip), vehicle: saline", "value": "0 of 6"}, {"measurement": "survivor count", "setting": "dose: 50.0 mg/kg/injection, schedule: Q04DX003 (ip), vehicle: saline", "value": "0 of 6"}]}
{"smiles": "Nc1nc(N)c(-c2ccc(Cl)c(Cl)c2)c(CBr)n1", "values": [{"measurement": "T/C", "setting": "dose: 6.25 mg/kg/injection, schedule: Q01DX009 (ip), vehicle: saline with Tween-80", "value": "135 % of control"}, {"measurement": "survivor count", "setting": "dose: 200.0 mg/kg/injection, schedule: Q04DX003 (ip), vehicle: Klucel (hydroxypropylcellulose) (HPC)", "value": "5 of 6"}, {"measurement": "survivor count", "setting": "[5]", "value": "3 of 6"}]}
{"smiles": "Cc1cc2ccccc2[n+](C)c1-c1ccccc1Br", "values": [{"measurement": "survivor count", "setting": "dose: 20.0 mg/kg/injection, schedule: Q01DX001 (ip), vehicle: saline", "value": "0 of 6"}, {"measurement": "survivor count", "setting": "dose: 40.0 mg/kg/injection, schedule: Q01DX001 (ip), vehicle: saline", "value": "0 of 6"}, {"measurement": "survivor count", "setting": "dose: 80.0 mg/kg/injection, schedule: Q01DX001 (ip), vehicle: saline", "value": "0 of 6"}, {"measurement": "survivor count", "setting": "dose: 100.0 mg/kg/injection, schedule: Q01DX001 (ip), vehicle: saline", "value": "0 of 4"}, {"measurement": "survivor count", "setting": "[3]", "value": "0 of 4"}, {"measurement": "survivor count", "setting": "[2]", "value": "0 of 4"}]}
{"smiles": "Cc1ccc(N=CNN=C(N)N)cc1", "values": [{"measurement": "survivor count", "setting": "dose: 60.0 mg/kg/injection, schedule: Q01DX Z (oral), vehicle: methylcellulose (MC)", "value": "6 of 6"}]}
{"smiles": "Nc1nc(N)c2c(n1)Nc1ccc(Cl)nc1S2", "values": [{"measurement": "survivor count", "setting": "dose: 300.0 mg/kg/injection, schedule: Q01DX009 (ip), vehicle: Klucel (hydroxypropylcellulose) (HPC)", "value": "2 of 6"}]}
{"smiles": "Cc1ccc(C)c2c1CC(C(=O)O)CC2C", "note": "(stereo not drawn)", "values": [{"measurement": "survivor count", "setting": "[7]", "value": "3 of 7"}]}
